Source: paper PMC12753876
Results are given in words; binding and its absence hold for the method and conditions named. Binding can be weak; no strength is given. Where a sequence is shown, tags or fusion partners need not be part of it.

Chains of the proteins cited; added tags and fusions are not shown. Lines headed by an entry give the natural chain unless they say otherwise; changes in a name come on top.
UniProt Q8GYY1: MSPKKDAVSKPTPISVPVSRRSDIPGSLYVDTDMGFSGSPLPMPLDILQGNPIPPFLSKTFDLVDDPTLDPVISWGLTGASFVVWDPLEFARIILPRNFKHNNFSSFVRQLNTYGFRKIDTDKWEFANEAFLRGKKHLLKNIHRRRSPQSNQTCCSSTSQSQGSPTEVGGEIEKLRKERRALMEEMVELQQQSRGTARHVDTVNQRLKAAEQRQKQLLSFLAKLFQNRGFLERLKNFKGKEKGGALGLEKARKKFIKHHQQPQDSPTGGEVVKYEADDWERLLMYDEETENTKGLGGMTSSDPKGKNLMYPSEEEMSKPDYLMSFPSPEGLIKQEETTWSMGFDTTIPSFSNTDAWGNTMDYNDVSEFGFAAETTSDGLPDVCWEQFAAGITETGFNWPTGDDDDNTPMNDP

Biological target: HsFA3^E173R in pGBKT7 (BD) (Arabidopsis thaliana) (UniProt Q8GYY1)
Test: two-hybrid; CRY1 as prey in pGADT7 (AD), HsF as bait in pGBKT7 (BD), co-transformed into yeast Y187; liquid beta-galactosidase assay with CPRG, Miller units; not detected (ND) if OD578 <0.01 after 3 h of color development

binding: binds
B1: CRY1^(PHR K332E R335E) in pGADT7 (AD) (domain or fragment, UniProt Q43125 1-508)
chain: MSGSVSGCGSGGCSIVWFRRDLRVEDNPALAAAVRAGPVIALFVWAPEEEGHYHPGRVSRWWLKNSLAQLDSSLRSLGTCLITKRSTDSVASLLDVVKSTGASQIFFNHLYDPLSLVRDHRAKDVLTAQGIAVRSFNADLLYEPWEVTDELGRPFSMFAAFWERCLSMPYDPESPLLPPKKIISGDVSKCVADPLVFEDDSEKGSNALLARAWSPGWSNGDKALTTFINGPLLEYSKNRRKADSATTSFLSPHLHFGEVSVRKVFHLVRIKQVAWANEGNEAGEESVNLFLKSIGLREYSRYISFNHPYSHERPLLGHLKFFPWAVDENYFEAWEQGRTGYPLVDAGMRELWATGWLHDRIRVVVSSFFVKVLQLPWRWGMKYFWDTLLDADLESDALGWQYITGTLPDSREFDRIDNPQFEGYKFDPNGEYVRRWLPELSRLPTDWIHHPWNAPESVLQAAGIELGSNYPLPIVGLDEAKARLHEALSQMWQLEAASRAAIENGSEE
